# No constants are given. Whether binding was seen depends on the method and setting. Binding seen in cells or lysates may run through a third protein. These calls come from enrichment with a bait or labelling near it, and not all partners need be listed. A no says only that the protein was not detected with the bait.
# By UniProt entry, the sequences of proteins in these tests, tags left out.
# UniProt Q14839: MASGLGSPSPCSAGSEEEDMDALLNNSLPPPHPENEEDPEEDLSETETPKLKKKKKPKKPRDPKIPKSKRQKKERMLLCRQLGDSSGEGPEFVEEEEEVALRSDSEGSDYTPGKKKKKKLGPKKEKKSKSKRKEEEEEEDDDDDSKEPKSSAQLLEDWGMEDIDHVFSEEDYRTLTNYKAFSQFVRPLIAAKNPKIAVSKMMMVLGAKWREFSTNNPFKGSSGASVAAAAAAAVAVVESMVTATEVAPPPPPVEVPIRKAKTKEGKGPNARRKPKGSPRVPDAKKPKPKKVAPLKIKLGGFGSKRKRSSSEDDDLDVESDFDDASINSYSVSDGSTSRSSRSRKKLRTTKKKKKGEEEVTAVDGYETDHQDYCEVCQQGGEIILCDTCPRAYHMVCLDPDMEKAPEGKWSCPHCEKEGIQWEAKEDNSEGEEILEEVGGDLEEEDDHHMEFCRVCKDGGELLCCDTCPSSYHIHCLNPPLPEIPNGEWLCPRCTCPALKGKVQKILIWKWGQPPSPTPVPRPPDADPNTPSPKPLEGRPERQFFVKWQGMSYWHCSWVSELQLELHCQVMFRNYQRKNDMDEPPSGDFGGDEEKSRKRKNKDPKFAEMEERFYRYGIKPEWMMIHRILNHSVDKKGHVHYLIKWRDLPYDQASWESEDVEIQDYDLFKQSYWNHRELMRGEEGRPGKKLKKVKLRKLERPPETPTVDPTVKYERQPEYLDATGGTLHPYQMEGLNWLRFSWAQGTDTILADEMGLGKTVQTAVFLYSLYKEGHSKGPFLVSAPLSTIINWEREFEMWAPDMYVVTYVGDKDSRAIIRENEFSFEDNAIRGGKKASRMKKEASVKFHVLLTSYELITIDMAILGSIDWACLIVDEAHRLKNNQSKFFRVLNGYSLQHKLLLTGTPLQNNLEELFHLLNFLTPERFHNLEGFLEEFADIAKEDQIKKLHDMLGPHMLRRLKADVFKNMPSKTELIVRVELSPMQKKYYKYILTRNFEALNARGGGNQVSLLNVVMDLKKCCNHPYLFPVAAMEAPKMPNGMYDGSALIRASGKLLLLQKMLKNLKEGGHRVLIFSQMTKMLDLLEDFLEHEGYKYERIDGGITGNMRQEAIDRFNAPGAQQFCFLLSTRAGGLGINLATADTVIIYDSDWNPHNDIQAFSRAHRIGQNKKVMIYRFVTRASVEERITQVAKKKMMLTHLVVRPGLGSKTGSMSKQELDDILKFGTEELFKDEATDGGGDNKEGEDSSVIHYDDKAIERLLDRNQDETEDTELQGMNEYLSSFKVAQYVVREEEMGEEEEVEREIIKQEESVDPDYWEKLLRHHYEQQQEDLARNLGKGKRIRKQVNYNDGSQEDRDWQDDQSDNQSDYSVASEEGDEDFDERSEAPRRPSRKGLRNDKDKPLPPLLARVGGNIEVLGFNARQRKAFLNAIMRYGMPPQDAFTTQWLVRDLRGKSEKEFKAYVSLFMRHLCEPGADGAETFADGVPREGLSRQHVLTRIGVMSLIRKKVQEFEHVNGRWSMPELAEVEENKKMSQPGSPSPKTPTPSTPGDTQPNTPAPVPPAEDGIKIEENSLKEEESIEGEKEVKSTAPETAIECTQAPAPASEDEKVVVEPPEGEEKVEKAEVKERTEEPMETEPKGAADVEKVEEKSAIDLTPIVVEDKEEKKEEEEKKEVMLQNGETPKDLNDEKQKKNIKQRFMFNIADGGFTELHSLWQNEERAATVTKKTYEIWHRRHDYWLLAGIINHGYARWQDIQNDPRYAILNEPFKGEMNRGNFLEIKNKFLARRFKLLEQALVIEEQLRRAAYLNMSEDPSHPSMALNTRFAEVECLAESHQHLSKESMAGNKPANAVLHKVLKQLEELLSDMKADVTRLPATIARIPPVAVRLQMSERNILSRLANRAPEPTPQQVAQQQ
# UniProt O15131: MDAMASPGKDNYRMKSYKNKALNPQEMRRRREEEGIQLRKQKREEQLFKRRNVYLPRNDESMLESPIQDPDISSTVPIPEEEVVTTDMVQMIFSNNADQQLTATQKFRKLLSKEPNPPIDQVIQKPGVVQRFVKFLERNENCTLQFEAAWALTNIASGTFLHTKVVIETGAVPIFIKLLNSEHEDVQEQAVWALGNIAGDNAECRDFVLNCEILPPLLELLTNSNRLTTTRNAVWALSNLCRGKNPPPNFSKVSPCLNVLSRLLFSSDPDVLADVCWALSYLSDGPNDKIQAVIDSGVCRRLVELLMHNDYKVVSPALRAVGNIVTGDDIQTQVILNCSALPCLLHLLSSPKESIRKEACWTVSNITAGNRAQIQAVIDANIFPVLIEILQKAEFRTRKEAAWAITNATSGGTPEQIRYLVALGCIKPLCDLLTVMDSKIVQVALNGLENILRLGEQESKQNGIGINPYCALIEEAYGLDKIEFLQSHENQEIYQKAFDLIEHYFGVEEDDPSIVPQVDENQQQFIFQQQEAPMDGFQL
# UniProt P52294: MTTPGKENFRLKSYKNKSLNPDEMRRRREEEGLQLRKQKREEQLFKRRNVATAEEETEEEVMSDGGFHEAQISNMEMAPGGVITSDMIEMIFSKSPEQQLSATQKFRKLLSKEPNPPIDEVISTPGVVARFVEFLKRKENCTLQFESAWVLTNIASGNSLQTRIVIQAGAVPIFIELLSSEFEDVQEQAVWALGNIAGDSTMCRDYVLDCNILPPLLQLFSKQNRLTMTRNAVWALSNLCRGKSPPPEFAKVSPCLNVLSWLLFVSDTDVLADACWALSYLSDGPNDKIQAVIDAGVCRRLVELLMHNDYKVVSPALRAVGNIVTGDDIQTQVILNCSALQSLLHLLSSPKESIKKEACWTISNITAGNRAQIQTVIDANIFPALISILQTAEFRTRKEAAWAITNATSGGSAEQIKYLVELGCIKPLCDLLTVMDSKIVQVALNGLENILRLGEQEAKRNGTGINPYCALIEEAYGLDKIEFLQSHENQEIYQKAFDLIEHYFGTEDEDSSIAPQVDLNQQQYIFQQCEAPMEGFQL
# Molecular target: C-terminal GFP-tagged CHD4 wild-type (human) (UniProt Q14839)
# Assay: affinity purification with mass spectrometry; GFP-Trap A on nuclear extract of stably transfected HEK 293 cells, 24 h doxycycline; beads not blocked; SDS gel slices, LC-MS/MS; control: binding control agarose beads
row,binding,Substance
1,binds,importin α6 (from UniProt O15131 1-539)
2,binds,importin α5 (from UniProt P52294 1-538)
3,no binding,importin β1 (from UniProt Q14974 1-876)
4,binds,importin α7 (from UniProt O60684 1-536)

# Source: PMC10112965
